Measurements as given in the supplement of paper PMC4604168 (melanoma cell lines).
The list shows a part of the results. Repeats are few or missing, and single values can be far off.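 Imaging used 1,536-well plates; nuclei positive for cleaved PARP by antibody were divided by total DNA-stained nuclei to yield the apoptosis fraction. Doses for screening kept most cells viable, and cell lines differ markedly in resting and induced cleaved-PARP levels.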

Columns and labels:
Experiment in all cases: cleaved PARP positive nuclei fraction relative to DMSO control; melanoma cells; higher = more apoptosis
Conditions in all cases: library dose: low library concentration; 72 h
[1] = system: 501Mel
[2] = system: A101D
[3] = system: A2058
[4] = system: C32
[5] = system: CBRC008 (line from a melanoma biopsy)
[6] = system: CBRC014 (line from a melanoma biopsy)
[7] = system: CBRC016 (line from a melanoma biopsy)
[8] = system: CBRC017 (line from a melanoma biopsy)
[9] = system: COLO792
[10] = system: COLO800
[11] = system: COLO829
[12] = system: G361
[13] = system: IPC-298
[14] = system: IST-MEL1
[15] = system: LB2518-MEL
[16] = system: LOXIMVI

Row | Structure (SMILES) | cleaved PARP positive nuclei fraction [1] | cleaved PARP positive nuclei fraction [2] | cleaved PARP positive nuclei fraction [3] | cleaved PARP positive nuclei fraction [4] | cleaved PARP positive nuclei fraction [5] | cleaved PARP positive nuclei fraction [6] | cleaved PARP positive nuclei fraction [7] | cleaved PARP positive nuclei fraction [8] | cleaved PARP positive nuclei fraction [9] | cleaved PARP positive nuclei fraction [10] | cleaved PARP positive nuclei fraction [11] | cleaved PARP positive nuclei fraction [12] | cleaved PARP positive nuclei fraction [13] | cleaved PARP positive nuclei fraction [14] | cleaved PARP positive nuclei fraction [15] | cleaved PARP positive nuclei fraction [16]
1 | CCCCCCCCCCCCCCCCCCOP(=O)([O-])OC1CC[N+](C)(C)CC1 [Perifosine] + CCc1ccc(CCOc2ccc(CC3SC(=O)NC3=O)cc2)nc1 [pioglitazone] (first compound 0.4 µM, partner dose 2 µM) | 106% | 9.81% | 291% | 174% | 114% | 265% | 75.9% | 125% | 68% | 124% | 135% | 72.1% | 94.5% | 126% | 285% | 153%
2 | O=c1[nH]nc(Sc2ncc([N+](=O)[O-])s2)n1-c1ccc2c(c1)OCCO2 + O=c1cc(-c2cccc3c2Sc2ccccc2S3)oc(N2CCOCC2)c1 [KU55933] (first compound 0.2 µM, partner dose 1 µM) | 153% | 16.1% | 91.3% | 158% | 257% | 105% | 77% | 146% | 98.9% | 116% | 78.4% | 86.7% | 43.9% | 97.5% | 53.4% | 90.9%
3 | O=C(/C=C/c1cccnc1)NCCCCC1CCN(C(=O)c2ccccc2)CC1 + N#Cc1c(O)c2c(-c3ccc(-c4ccccc4O)cc3)csc2[nH]c1=O [A769662] (first compound 0.01 µM, partner dose 2 µM) | 64.2% | 17.2% | 38.4% | 92.6% | 4260% | 84.7% | 540% | 189% | 273% | 221% | 146% | 4220% | 115% | 42.4% | 309% | 37.2%
4 | O=C(/C=C/c1cccnc1)NCCCCC1CCN(C(=O)c2ccccc2)CC1 + Cn1cc(/C=C2\C(=O)Nc3cccnc32)c2ccccc21 [GW441756] (first compound 0.01 µM, partner dose 0.4 µM) | 75.9% | 49.6% | 168% | 57.6% | 2150% | 113% | 981% | 563% | 357% | 162% | 350% | 4090% | 326% | 36.2% | 254% | 42.3%
5 | Cc1cn(-c2cc(NC(=O)c3ccc(C)c(Nc4nccc(-c5cccnc5)n4)c3)cc(C(F)(F)F)c2)cn1 [nilotinib] + COc1ccc(COc2ccc(Cc3cnc(N)nc3N)cc2OC)cc1 [GW2580] (first compound 0.2 µM, partner dose 1 µM) | 34.3% | 8.5% | 69.3% | 134% | 70.5% | 86.6% | 13.5% | 95% | 176% | 148% | 39.2% | 65.9% | 1610% | 35% | 59.7% | 220%
6 | O=C(Nc1cc(C(F)(F)F)cc(C(F)(F)F)c1)c1cc(Cl)ccc1O + CC(C)CCN1c2nc(Nc3cc(F)c(O)c(F)c3)ncc2N(C)C(=O)C1C [BID1870] (first compound 0.016 µM, partner dose 0.2 µM) | 43.6% | 37.2% | 82% | 115% | 111% | 90.4% | 124% | 97.5% | 97.4% | 104% | 80.4% | 64.4% | 112% | 105% | 37.2% | 97.6%
7 | COc1cc([C@@H]2c3cc4c(cc3[C@@H](O[C@@H]3O[C@@H]5CO[C@@H](C)O[C@H]5[C@H](O)[C@H]3O)[C@H]3COC(=O)[C@H]23)OCO4)cc(OC)c1O [etoposide] + COc1ccc(COc2ccc(Cc3cnc(N)nc3N)cc2OC)cc1 [GW2580] (first compound 0.02 µM, partner dose 1 µM) | 317% | 14.2% | 83.1% | 40.8% | 43.8% | 81.8% | 43.4% | 69.8% | 91.8% | 18.8% | 20.3% | 98.5% | 38.8% | 64.9% | 79.8% | 50.1%
8 | Cc1cn(-c2cc(NC(=O)c3ccc(C)c(Nc4nccc(-c5cccnc5)n4)c3)cc(C(F)(F)F)c2)cn1 [nilotinib] + N#Cc1c(O)c2c(-c3ccc(-c4ccccc4O)cc3)csc2[nH]c1=O [A769662] (first compound 0.2 µM, partner dose 2 µM) | 147% | 16.3% | 26.2% | 31.3% | 56.1% | 106% | 65.7% | 102% | 121% | 164% | 117% | 172% | 60.9% | 97.2% | 67.2% | 175%
9 | CCCCCCCCCCCCCCCCCCOP(=O)([O-])OC1CC[N+](C)(C)CC1 [Perifosine] + COC(=O)c1sccc1S(=O)(=O)Nc1ccc(Nc2ccccc2)cc1OC [GSK0660] (first compound 0.4 µM, partner dose 1 µM) | 57.8% | 51.4% | 54.1% | 157% | 134% | 83.4% | 79.1% | 95.6% | 128% | 121% | 87.6% | 63.4% | 96% | 69% | 70.3% | 184%

Some entries already given with just cleaved PARP positive nuclei fraction [4] and cleaved PARP positive nuclei fraction [2].
Row	Structure (SMILES)	cleaved PARP positive nuclei fraction [4]	cleaved PARP positive nuclei fraction [2]
6	O=C(Nc1cc(C(F)(F)F)cc(C(F)(F)F)c1)c1cc(Cl)ccc1O + CC(C)CCN1c2nc(Nc3cc(F)c(O)c(F)c3)ncc2N(C)C(=O)C1C [BID1870] (first compound 0.016 µM, partner dose 0.2 µM)	115%	37.2%
7	COc1cc([C@@H]2c3cc4c(cc3[C@@H](O[C@@H]3O[C@@H]5CO[C@@H](C)O[C@H]5[C@H](O)[C@H]3O)[C@H]3COC(=O)[C@H]23)OCO4)cc(OC)c1O [etoposide] + COc1ccc(COc2ccc(Cc3cnc(N)nc3N)cc2OC)cc1 [GW2580] (first compound 0.02 µM, partner dose 1 µM)	40.8%	14.2%
